For experiment [1], the target named is endogenous 14-3-3β protein of U2OS human osteosarcoma cells (human) (UniProt P31946). Nature of the experiment: co-immunoprecipitation from U2OS lysates (figure legend).
Experiment [2] has the same target. Briefly: co-immunoprecipitation on anti-Flag affinity agarose from U2OS lysates, immunoblot with anti-14-3-3β.
The target is the same in experiment [3]. Briefly: reverse co-immunoprecipitation on anti-14-3-3β antibody from U2OS lysates, immunoblot with anti-Flag.
The target in experiment [4] is T1, GST fusion of the cytosolic domain of human Ror2 (amino acids 428-944), made in E. coli from pGEX-4T-2 (human) (UniProt Q01974).
T1 sequence (looked up): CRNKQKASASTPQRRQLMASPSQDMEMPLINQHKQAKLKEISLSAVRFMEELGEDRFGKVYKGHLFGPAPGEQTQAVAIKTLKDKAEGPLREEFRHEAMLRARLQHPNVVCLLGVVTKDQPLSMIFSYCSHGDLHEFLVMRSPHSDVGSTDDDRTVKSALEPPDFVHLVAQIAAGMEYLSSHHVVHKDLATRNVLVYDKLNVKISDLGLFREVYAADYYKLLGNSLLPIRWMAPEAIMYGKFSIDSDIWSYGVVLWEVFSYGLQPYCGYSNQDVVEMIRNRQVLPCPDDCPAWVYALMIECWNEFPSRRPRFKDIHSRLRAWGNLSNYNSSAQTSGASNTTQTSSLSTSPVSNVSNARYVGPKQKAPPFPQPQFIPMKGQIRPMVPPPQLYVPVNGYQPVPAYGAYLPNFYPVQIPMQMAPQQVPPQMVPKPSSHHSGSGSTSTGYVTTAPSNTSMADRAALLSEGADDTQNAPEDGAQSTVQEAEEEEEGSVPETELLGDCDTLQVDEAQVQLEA
Briefly: GST pull-down on glutathione sepharose (figure legend).

Protein sequences, listed by entry. Tags and fused reporters are not part of them. Lines headed by an entry give the natural chain unless they say otherwise; changes in a name come on top. Residues count along the entry.
UniProt P31946: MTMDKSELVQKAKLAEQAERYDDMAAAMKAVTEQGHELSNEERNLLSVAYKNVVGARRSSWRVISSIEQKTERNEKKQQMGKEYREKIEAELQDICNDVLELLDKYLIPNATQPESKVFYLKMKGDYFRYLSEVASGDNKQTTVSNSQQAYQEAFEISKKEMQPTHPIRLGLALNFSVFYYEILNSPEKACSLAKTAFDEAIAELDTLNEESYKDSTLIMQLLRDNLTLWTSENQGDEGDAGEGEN
endogenous 14-3-3β protein of U2OS human osteosarcoma cells: residues 2-246 of P31946

Experiment [5] has as its target T1, GST fusion of the cytosolic domain of human Ror2 (amino acids 428-944), made in E. coli from pGEX-4T-2 (human). Briefly: GST pull-down on glutathione sepharose, immunoblot with anti-14-3-3β.

Results are given in words; binding and its absence hold for the method and conditions named. Binding seen in cells or lysates may run through a third protein. Some results given as binding are weak or reduced against the parent protein; the word gives no strength. For some assays here: Sequences can lack the tags named with a protein.

Turning to “human Ror2 with COOH-terminal Flag epitope tag (wild-type) (from UniProt Q01974 34-943) (receptor)”, the binding result in experiment [1], in experiment [2] and in experiment [3] was “binds” throughout.
Turning to “in vitro translated full-length human 14-3-3β (from 14-3-3β-pET28a) (from UniProt P31946 1-246)”, the binding result in experiment [4] and in experiment [5] was “binds” throughout.

Source of the values: patent US20090047287A1, “MODULATION OF BONE FORMATION” (Wyeth, priority 2006, published 2009).
